Results are given in words; binding and its absence hold for the method and conditions named. A result given as binding can be weak or reduced; the word gives no strength.
Molecular target: cAng2 (cynomolgus monkey)
Test: competition ELISA, blocking of cAng2 binding to cTie2

binding: binds
B1: ANGBII00003 (VHH)
bivalent VHH: EVQLVESGGGLVQVGDSLRLSCAASGRTFSTYLMVGWFRQAPGKEREFAAGIWSSGDTAYADSVRGRFTISRDNAKNTVYLQMNSLKTEDTAVYYCAGSYDGNYYIPGFYKDWGQGTLVTVSSGGGGSGGGSEVQLVESGGGLVQVGDSLRLSCAASGRTFSTYLMVGWFRQAPGKEREFAAGIWSSGDTAYADSVRGRFTISRDNAKNTVYLQMNSLKTEDTAVYYCAGSYDGNYYIPGFYKDWGQGTLVTVSS

Source: patent publication US20170247475A1
